Data as given in paper PMC4494927, “Discovery of a small molecule targeting SET-PP2A interaction to overcome BCR-ABLT315I mutation of chronic myeloid leukemia” (Oncotarget, 2015).
These are yes or no findings as the source states them, for the method shown. Binding seen in cells or lysates may run through a third protein. Binding calls can cover weak binding; strength is not graded here.

Amino acid sequences for entries named in this document (tags omitted). A change or cut given only in a name is not applied to a line headed by its entry. Chains listed by the source or under a name are the forms on record and can include a tag or linker.
SET (endogenous, K562 cells) (human (endogenous in K562)) (Q01105, form named): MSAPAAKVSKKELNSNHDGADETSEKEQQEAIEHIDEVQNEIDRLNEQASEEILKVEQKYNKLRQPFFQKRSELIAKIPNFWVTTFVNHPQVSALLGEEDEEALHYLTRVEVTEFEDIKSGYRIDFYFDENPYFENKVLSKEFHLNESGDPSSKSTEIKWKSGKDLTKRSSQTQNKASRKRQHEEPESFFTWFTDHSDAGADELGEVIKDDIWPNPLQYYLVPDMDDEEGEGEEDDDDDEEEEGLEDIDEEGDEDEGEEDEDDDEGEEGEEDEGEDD
UniProt Q9EQU5: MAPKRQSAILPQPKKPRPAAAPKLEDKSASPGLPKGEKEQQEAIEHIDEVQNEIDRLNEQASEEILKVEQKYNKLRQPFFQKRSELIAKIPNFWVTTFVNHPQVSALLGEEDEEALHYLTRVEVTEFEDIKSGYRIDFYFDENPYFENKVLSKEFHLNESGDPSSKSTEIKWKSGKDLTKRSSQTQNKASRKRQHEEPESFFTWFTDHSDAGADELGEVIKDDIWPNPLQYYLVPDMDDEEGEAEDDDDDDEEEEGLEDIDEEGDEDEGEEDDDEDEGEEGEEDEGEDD
UniProt P67775: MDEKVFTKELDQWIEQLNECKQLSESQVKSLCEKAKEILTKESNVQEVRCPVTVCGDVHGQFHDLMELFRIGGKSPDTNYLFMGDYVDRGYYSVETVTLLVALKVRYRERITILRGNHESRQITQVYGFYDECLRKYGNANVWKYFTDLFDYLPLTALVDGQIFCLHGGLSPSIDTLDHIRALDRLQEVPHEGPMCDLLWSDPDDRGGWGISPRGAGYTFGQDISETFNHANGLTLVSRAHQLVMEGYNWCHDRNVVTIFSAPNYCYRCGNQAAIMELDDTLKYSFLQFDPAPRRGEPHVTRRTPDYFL
UniProt P63330: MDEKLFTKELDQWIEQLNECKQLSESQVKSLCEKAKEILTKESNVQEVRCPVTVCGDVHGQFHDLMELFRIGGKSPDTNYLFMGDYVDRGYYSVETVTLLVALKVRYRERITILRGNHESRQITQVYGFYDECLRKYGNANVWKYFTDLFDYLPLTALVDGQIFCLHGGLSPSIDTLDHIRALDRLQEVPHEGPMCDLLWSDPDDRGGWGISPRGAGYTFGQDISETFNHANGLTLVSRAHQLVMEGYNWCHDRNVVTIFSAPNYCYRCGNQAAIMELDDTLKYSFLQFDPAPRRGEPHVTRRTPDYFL

What was measured:
[1] = molecular target: SET (endogenous, K562 cells) (human (endogenous in K562)) (UniProt Q01105); assay: co-IP; endogenous proteins; lysates (200 μg) of cells incubated with or without TGI1002 for 24 h; antibodies against SET or PP2Ac, protein A/G plus agarose, 4 °C; 20 mM Tris-HCl pH 7.0, 150 mM NaCl, 1 mM EDTA, 1 mM MgCl, 0.5% NP-40; Western blot
[2] = molecular target: SET (endogenous, murine BaF3-p210^T315I cells) (mouse (endogenous in BaF3-p210^T315I)) (UniProt Q9EQU5); assay: co-IP; endogenous proteins; homogenized tissues of BaF3-p210^T315I xenografted tumors from mice treated with saline (vehicle) or TGI1002 (30, 45 and 60 mg/kg); PP2Ac and SET immunoprecipitated; Western blot
[3] = molecular target: SET (endogenous, murine BaF3-p210^T315I cells) (mouse (endogenous in BaF3-p210^T315I)) (UniProt Q9EQU5); assay: co-IP; endogenous proteins; lysates (200 μg) of cells incubated with or without TGI1002 for 24 h; antibodies against SET or PP2Ac, protein A/G plus agarose, 4 °C; 20 mM Tris-HCl pH 7.0, 150 mM NaCl, 1 mM EDTA, 1 mM MgCl, 0.5% NP-40; Western blot

Row | Substance | binding [1] | binding [2] | binding [3]
1 | catalytic subunit of PP2A (PP2Ac) (endogenous, K562 cells) (from UniProt P67775) (enzyme) | binds |  | 
2 | catalytic subunit of PP2A (PP2Ac) (endogenous, murine BaF3-p210^T315I cells) (from UniProt P63330) (enzyme) |  | binds | binds
